{
  "sequences": {"note": "Sequences of proteins named here, by UniProt entry; tags and fusion partners are left off.", "UniProt P46100": "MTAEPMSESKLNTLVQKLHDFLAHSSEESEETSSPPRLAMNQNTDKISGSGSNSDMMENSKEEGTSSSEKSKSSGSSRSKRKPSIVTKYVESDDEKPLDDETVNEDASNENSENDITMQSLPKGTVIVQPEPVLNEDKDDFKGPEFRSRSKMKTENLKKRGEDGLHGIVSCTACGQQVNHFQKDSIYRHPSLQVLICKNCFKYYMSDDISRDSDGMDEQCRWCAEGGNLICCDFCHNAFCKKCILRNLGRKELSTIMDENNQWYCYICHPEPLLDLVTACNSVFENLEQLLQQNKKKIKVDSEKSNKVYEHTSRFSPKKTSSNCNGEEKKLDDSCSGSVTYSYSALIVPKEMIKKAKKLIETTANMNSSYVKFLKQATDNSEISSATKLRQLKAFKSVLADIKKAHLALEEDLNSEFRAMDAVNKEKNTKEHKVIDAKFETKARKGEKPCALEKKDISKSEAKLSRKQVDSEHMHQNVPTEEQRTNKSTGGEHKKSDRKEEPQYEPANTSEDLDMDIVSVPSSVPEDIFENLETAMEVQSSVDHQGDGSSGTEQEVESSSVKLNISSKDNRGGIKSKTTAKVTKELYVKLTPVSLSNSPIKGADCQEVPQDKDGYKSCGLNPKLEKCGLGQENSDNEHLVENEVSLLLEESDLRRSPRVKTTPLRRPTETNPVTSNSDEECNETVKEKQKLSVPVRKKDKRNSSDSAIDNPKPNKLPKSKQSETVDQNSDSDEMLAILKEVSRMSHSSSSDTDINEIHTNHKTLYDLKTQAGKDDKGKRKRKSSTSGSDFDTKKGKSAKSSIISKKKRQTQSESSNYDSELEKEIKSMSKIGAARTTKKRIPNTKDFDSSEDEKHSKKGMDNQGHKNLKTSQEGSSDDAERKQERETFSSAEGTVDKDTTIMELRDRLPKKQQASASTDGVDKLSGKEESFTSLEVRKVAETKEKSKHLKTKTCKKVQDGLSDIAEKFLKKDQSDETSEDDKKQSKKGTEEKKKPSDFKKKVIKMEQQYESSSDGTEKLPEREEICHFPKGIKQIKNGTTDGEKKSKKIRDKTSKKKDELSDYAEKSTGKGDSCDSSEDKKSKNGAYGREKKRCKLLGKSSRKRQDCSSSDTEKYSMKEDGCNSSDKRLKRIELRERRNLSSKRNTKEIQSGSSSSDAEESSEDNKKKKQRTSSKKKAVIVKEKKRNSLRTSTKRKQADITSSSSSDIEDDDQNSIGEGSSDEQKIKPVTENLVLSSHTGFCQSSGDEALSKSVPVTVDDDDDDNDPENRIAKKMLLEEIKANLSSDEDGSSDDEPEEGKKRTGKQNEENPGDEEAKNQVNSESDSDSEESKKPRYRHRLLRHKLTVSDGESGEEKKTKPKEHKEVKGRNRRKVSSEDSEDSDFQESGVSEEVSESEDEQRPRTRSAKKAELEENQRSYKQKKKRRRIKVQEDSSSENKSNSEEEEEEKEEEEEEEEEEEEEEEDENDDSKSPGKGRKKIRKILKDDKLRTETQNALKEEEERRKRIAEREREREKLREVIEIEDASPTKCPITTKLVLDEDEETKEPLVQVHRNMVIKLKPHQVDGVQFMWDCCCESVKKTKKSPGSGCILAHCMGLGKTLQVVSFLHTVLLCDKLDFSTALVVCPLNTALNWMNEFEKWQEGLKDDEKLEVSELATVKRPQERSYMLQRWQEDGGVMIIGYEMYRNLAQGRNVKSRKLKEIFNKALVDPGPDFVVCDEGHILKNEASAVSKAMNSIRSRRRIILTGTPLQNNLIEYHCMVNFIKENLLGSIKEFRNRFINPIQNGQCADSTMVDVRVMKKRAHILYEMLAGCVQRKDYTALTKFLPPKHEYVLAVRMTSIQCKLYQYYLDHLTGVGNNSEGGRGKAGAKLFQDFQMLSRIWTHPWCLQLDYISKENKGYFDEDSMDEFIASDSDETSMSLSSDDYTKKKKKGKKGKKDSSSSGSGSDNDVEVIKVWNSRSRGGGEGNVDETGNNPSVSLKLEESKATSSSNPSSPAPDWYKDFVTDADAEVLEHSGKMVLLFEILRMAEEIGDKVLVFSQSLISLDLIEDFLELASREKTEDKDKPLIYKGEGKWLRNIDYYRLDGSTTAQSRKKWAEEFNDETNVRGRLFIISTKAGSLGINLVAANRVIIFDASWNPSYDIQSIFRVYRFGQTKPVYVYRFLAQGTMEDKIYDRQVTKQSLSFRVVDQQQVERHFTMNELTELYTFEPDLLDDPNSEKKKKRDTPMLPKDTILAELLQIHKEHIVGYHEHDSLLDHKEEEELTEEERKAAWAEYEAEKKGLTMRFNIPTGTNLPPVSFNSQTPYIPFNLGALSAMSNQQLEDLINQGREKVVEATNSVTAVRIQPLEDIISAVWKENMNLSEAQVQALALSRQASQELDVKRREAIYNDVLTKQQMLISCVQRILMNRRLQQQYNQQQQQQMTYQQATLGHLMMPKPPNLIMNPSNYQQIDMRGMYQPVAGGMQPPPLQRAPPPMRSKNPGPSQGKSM", "UniProt Q96T58": "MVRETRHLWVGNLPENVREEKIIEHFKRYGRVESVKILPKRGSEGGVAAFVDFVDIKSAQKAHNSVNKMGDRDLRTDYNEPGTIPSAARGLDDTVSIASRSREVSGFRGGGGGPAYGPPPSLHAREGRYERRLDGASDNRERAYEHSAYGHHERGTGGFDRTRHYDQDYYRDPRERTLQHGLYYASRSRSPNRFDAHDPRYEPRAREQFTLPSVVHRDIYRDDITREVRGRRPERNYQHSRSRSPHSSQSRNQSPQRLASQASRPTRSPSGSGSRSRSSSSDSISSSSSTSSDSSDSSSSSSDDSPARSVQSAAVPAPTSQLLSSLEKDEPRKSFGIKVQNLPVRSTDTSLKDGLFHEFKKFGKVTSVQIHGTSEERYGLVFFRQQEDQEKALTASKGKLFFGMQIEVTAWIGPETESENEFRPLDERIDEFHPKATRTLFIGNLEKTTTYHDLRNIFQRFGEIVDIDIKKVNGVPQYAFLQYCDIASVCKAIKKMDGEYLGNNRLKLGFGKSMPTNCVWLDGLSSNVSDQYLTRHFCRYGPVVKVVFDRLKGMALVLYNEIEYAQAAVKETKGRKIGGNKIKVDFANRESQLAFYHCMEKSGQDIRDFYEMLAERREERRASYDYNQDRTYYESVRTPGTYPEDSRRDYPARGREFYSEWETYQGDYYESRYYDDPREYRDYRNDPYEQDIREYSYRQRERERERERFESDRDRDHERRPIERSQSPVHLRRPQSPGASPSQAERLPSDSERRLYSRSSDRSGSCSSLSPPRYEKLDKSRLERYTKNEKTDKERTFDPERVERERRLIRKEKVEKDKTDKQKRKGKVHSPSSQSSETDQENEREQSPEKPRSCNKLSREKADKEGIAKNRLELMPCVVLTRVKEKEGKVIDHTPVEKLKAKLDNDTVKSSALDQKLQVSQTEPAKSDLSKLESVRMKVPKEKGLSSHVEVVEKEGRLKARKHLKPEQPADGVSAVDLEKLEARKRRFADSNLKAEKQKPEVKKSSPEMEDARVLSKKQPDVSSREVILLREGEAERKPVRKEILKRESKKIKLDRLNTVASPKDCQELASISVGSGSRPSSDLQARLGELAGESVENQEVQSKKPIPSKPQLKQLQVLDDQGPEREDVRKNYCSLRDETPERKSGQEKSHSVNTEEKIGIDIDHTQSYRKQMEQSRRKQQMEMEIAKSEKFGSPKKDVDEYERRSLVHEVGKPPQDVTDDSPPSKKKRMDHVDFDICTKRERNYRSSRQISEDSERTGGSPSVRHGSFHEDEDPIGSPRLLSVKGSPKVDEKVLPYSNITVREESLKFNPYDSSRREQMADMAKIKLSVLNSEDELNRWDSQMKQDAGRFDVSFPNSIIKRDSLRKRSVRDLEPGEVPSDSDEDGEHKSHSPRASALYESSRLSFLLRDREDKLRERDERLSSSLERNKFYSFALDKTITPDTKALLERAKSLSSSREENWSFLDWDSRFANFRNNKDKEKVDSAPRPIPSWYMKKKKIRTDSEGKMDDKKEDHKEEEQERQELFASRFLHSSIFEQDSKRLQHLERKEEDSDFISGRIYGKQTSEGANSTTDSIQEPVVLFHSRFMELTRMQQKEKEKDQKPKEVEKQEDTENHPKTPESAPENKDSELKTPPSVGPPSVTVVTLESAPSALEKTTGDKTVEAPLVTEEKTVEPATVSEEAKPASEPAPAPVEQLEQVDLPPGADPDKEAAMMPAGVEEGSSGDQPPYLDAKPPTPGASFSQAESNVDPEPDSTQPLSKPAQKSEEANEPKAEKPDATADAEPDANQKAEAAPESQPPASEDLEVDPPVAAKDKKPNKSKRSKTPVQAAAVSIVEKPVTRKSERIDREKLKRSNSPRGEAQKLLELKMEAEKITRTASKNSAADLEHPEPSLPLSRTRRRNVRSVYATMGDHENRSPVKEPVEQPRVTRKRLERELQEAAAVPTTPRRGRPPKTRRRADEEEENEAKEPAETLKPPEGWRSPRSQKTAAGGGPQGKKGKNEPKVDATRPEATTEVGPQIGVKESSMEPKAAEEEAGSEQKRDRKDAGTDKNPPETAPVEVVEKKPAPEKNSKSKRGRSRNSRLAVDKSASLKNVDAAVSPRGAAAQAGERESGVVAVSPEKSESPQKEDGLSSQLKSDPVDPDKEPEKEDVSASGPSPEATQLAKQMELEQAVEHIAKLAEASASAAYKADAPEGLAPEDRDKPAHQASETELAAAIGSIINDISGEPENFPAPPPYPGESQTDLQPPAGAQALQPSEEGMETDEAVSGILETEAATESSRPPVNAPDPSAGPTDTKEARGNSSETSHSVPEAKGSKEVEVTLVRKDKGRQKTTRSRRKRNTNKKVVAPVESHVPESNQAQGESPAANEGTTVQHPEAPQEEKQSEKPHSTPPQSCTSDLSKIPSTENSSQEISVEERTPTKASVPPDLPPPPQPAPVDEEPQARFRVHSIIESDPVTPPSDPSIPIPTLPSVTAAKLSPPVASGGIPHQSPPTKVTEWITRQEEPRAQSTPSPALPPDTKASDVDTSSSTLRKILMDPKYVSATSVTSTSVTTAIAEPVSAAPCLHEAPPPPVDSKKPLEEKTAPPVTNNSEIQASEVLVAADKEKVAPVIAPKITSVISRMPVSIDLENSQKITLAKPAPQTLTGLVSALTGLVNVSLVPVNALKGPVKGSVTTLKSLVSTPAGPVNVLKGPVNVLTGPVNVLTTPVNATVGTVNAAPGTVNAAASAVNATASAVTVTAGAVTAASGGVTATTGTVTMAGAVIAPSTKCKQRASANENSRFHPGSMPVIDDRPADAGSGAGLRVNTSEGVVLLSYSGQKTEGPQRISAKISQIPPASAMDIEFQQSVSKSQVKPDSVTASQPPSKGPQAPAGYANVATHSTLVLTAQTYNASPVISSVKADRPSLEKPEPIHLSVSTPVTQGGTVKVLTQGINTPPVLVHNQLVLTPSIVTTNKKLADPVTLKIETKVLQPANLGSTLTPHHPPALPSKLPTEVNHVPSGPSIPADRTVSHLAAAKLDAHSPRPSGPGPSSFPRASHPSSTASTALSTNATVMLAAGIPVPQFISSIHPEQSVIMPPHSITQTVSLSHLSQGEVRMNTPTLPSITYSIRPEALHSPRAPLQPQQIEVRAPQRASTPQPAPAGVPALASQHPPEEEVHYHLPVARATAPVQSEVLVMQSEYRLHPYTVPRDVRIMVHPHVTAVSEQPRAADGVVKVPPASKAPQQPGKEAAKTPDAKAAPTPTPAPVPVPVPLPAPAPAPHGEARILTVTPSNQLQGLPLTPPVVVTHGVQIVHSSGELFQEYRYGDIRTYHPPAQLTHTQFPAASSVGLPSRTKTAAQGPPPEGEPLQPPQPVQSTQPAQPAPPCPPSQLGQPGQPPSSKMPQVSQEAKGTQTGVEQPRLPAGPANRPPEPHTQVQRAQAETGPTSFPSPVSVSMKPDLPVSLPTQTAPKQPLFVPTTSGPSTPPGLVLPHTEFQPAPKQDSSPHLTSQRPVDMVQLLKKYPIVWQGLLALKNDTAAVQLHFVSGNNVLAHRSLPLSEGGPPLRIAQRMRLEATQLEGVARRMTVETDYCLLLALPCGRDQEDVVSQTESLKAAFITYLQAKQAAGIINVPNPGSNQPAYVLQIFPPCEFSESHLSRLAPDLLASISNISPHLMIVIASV"},
  "source": "paper PMC8222256",
  "molecules": {"B1": {"name": "Mre11, P49959 1-708 (protein)", "chain": "MSTADALDDENTFKILVATDIHLGFMEKDAVRGNDTFVTLDEILRLAQENEVDFILLGGDLFHENKPSRKTLHTCLELLRKYCMGDRPVQFEILSDQSVNFGFSKFPWVNYQDGNLNISIPVFSIHGNHDDPTGADALCALDILSCAGFVNHFGRSMSVEKIDISPVLLQKGSTKIALYGLGSIPDERLYRMFVNKKVTMLRPKEDENSWFNLFVIHQNRSKHGSTNFIPEQFLDDFIDLVIWGHEHECKIAPTKNEQQLFYISQPGSSVVTSLSPGEAVKKHVGLLRIKGRKMNMHKIPLHTVRQFFMEDIVLANHPDIFNPDNPKVTQAIQSFCLEKIEEMLENAERERLGNSHQPEKPLVRLRVDYSGGFEPFSVLRFSQKFVDRVANPKDIIHFFRHREQKEKTGEEINFGKLITKPSEGTTLRVEDLVKQYFQTAEKNVQLSLLTERGMGEAVQEFVDKEEKDAIEELVKYQLEKTQRFLKERHIDALEDKIDEEVRRFRETRQKNTNEEDDEVREAMTRARALRSQSEESASAFSADDLMSIDLAEQMANDSDDSISAATNKGRGRGRGRRGGRGQNSASRGGSQRGRADTGLETSTRSRNSKTAVSASRNMSIIDAFKSTRQQPSRNVTTKNYSEVIEVDESDVEEDIFPTTSKTDQRWSSTSSSKIMSQSQVSKGVDFESSEDDDDDPFMNTSSLRRNRR"}, "B2": {"name": "MCM6 (protein, UniProt Q14566 1-821)", "chain": "MDLAAAAEPGAGSQHLEVRDEVAEKCQKLFLDFLEEFQSSDGEIKYLQLAEELIRPERNTLVVSFVDLEQFNQQLSTTIQEEFYRVYPYLCRALKTFVKDRKEIPLAKDFYVAFQDLPTRHKIRELTSSRIGLLTRISGQVVRTHPVHPELVSGTFLCLDCQTVIRDVEQQFKYTQPNICRNPVCANRRRFLLDTNKSRFVDFQKVRIQETQAELPRGSIPRSLEVILRAEAVESAQAGDKCDFTGTLIVVPDVSKLSTPGARAETNSRVSGVDGYETEGIRGLRALGVRDLSYRLVFLACCVAPTNPRFGGKELRDEEQTAESIKNQMTVKEWEKVFEMSQDKNLYHNLCTSLFPTIHGNDEVKRGVLLMLFGGVPKTTGEGTSLRGDINVCIVGDPSTAKSQFLKHVEEFSPRAVYTSGKASSAAGLTAAVVRDEESHEFVIEAGALMLADNGVCCIDEFDKMDVRDQVAIHEAMEQQTISITKAGVKATLNARTSILAAANPISGHYDRSKSLKQNINLSAPIMSRFDLFFILVDECNEVTDYAIARRIVDLHSRIEESIDRVYSLDDIRRYLLFARQFKPKISKESEDFIVEQYKHLRQRDGSGVTKSSWRITVRQLESMIRLSEAMARMHCCDEVQPKHVKEAFRLLNKSIIRVETPDVNLDQEEEIQMEVDEGAGGINGHADSPAPVNGINGYNEDINQESAPKASLRLGFSEYCRISNLIVLHLRKVEEEEDESALKRSELVNWYLKEIESEIDSEEELINKKRIIEKVIHRLTHYDHVLIELTQAGLKGSTEGSESYEEDPYLVVNPNYLLED"}},
  "key": {"[1]": {"biological_target": "ATRX (human (endogenous in HeLa)) (UniProt P46100)", "assay": "affinity purification with mass spectrometry; 5 mg pre-cleared HeLa nuclear extract, overnight at 4 °C with 40 μg ATRX antibody cross-linked to Dynabeads Protein G; washes with 20 mM HEPES pH 7.9, 150 mM KCl, 0.01% NP-40; compared with rabbit IgG and with ATRX KO HeLa cells"}, "[2]": {"biological_target": "ATRX (human (endogenous in HeLa)), P46100", "assay": "affinity purification with mass spectrometry; 5 mg pre-cleared HeLa nuclear extract, overnight at 4 °C with 40 μg ATRX antibody cross-linked to Dynabeads Protein G; washes with 20 mM HEPES pH 7.9, 150 mM KCl, 0.01% NP-40; compared with rabbit IgG and with ATRX KO HeLa cells", "settings": "remark: other sources report otherwise"}},
  "note": "No constants are given. Whether binding was seen depends on the method and setting. Binding seen in cells or lysates may run through a third protein. A yes stands for co-enrichment or nearness to the bait. Other partners may have been found.",
  "data": [
    {"molecule": "DDX10 (from UniProt Q13206 1-875)", "values": [
      {"measurement": "binding", "setting": "[1]", "result": "binds"}
    ]},
    {"molecule": "MCM2 (from UniProt P49736 1-904)", "values": [
      {"measurement": "binding", "setting": "[1]", "result": "binds"}
    ]},
    {"molecule": "SPEN (from UniProt Q96T58 1-3664)", "values": [
      {"measurement": "binding", "setting": "[1]", "result": "binds"}
    ]},
    {"molecule": "B1", "values": [
      {"measurement": "binding", "setting": "[2]", "result": "binds"}
    ]},
    {"molecule": "B2", "values": [
      {"measurement": "binding", "setting": "[1]", "result": "binds"}
    ]}
  ]
}
